We go through 5 targets from the supplement of paper PMC12819154, “High-throughput peptide-centric local stability assay extends protein–ligand identification to membrane proteins, tissues and bacteria” (Nature Structural & Molecular Biology, 2025).

The chains behind the UniProt entries cited, without tags or fusion partners. Where a name states a change or a piece, a line headed by the entry shows the natural chain unless it says otherwise.
UniProt Q9JJA9: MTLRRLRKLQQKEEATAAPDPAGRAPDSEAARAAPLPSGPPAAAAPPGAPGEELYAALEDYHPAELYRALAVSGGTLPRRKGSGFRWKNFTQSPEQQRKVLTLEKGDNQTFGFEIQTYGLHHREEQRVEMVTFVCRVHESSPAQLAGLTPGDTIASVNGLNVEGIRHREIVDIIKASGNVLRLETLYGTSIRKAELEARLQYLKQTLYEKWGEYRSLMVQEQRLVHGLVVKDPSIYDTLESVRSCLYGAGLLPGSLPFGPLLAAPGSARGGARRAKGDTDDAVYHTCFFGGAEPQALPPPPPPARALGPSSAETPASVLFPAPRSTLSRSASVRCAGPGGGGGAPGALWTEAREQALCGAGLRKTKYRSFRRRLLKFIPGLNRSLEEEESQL
UniProt Q9JHD2, whole entry: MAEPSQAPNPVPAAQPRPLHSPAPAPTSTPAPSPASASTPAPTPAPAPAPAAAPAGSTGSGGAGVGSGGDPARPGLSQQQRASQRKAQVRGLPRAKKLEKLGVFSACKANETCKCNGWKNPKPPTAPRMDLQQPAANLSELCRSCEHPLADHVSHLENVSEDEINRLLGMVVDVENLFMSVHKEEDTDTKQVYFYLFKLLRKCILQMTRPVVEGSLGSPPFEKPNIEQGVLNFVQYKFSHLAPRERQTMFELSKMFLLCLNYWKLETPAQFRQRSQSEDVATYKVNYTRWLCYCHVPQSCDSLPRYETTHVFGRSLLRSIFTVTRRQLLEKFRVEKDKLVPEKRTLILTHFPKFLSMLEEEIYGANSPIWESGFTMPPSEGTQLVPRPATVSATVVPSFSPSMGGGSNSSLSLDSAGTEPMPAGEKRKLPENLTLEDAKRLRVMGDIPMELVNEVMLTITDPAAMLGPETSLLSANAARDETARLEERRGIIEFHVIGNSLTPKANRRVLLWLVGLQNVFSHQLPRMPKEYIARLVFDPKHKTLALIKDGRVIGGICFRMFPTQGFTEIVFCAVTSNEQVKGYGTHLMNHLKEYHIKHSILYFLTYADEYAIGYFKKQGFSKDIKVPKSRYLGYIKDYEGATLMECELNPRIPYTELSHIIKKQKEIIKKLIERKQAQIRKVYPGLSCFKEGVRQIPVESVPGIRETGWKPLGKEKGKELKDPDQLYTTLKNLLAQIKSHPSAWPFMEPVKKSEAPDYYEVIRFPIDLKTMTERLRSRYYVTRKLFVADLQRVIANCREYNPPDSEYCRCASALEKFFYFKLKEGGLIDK
UniProt Q9JMH6, whole entry: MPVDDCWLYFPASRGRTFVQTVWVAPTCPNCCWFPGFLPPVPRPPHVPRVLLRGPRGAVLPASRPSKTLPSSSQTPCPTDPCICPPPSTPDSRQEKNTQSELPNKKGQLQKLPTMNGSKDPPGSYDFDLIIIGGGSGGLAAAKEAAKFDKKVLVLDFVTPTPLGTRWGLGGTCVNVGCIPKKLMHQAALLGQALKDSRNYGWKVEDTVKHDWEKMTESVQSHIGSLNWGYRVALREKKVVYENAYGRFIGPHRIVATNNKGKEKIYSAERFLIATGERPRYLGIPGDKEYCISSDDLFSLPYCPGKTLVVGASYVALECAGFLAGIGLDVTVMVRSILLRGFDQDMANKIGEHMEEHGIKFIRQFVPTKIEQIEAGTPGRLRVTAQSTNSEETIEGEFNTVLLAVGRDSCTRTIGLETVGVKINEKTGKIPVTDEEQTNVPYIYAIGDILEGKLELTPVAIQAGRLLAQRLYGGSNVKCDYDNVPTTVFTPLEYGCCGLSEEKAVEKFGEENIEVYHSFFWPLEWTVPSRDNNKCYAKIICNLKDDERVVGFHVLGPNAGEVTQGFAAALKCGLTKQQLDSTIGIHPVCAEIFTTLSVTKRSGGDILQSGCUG
UniProt Q9QXA7: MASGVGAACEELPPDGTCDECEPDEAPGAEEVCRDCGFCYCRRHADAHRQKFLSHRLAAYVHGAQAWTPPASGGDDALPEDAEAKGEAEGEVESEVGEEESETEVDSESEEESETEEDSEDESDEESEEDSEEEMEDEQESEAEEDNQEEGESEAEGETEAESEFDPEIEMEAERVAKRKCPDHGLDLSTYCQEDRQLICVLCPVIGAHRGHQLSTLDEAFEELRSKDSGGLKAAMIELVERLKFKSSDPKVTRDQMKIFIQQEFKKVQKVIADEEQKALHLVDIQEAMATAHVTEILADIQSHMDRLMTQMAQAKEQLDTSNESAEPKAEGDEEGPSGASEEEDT
UniProt Q9JLV2: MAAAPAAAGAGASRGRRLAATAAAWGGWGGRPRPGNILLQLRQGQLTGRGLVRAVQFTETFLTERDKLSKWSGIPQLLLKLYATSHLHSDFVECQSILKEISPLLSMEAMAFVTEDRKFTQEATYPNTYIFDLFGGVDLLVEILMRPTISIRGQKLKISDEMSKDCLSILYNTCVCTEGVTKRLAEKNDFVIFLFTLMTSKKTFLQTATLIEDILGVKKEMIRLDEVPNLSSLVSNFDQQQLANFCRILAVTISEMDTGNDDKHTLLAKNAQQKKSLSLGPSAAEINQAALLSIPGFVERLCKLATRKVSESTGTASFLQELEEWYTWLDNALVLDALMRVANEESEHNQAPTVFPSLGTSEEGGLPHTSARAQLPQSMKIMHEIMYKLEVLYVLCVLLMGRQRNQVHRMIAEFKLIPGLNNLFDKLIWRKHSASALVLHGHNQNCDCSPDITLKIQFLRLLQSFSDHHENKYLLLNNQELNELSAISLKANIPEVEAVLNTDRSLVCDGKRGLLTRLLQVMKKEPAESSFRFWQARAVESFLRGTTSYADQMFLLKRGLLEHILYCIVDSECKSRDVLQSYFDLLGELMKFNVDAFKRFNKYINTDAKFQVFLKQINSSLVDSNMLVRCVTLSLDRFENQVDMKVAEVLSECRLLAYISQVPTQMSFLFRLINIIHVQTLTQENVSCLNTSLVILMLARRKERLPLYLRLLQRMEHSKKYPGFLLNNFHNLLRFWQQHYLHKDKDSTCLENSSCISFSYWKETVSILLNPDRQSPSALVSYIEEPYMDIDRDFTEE

The list shows a part of the results. Most values lie at the level of the controls, where differences are scatter.

Compound in the assay: CN[C@@H]1C[C@H]2O[C@@](C)([C@@H]1OC)n1c3ccccc3c3c4c(c5c6ccccc6n2c5c31)C(=O)NC4 [staurosporine]
Briefly: log2 fold change of tryptic peptide abundance, ligand vs vehicle (limited proteolysis) (log2 ratio); higher = more trypsin-susceptible (destabilized). As to conditions: ligand concentration: 20 uM; sample: mouse liver crude lysate; replicate design: treated separately.
Turning to “UniProt Q9JJA9 (peptide sequence: ALAVSGGTLPR, peptide start residue: 69)”, the log2 fold change worked out at 0.0145. For the target “UniProt Q9JHD2 (peptide sequence: SRYYVTRK, peptide start residue: 777)”, the log2 fold change came to 0.0697. The value for “UniProt Q9JMH6 (peptide sequence: VEDTVKHDWEK, peptide start residue: 204)” was -0.281; that for “UniProt Q9QXA7 (peptide sequence: LMTQMAQAK, peptide start residue: 308)” was 0.0365. The value for “UniProt Q9JLV2 (peptide sequence: KEPAESSFR, peptide start residue: 524)” was 0.204.
